In patent US11352308B2, “Compound and semiconductor material containing same” (DIC Corporation, priority 2016, dated 2022) one finds Mobility data, which are given here for 15 compounds.

The data set in a line: Mobility of BGBC transistor with semiconductor layer drop casted from p-xylene solution. Conditions: 0.4 wt % p-xylene solution drop casted, drain −80 V, gate swept +40 V to −60 V. The protocol:
A glass substrate was subjected to ultrasonic cleaning with a neutral detergent aqueous solution, distilled water, acetone and ethanol in this order (each 30 min×3 times), a platinum gate electrode (thickness: 30 nm) was pattern-deposited on the glass substrate by sputtering through a shadow metal mask, and a gate insulator (thickness: 1 μm) made of a dichloro-di-p-xylylene polymer (polyparaxylylene) was formed over the gate electrode by thermal CVD. Then, on the gate insulator, gold source and drain electrodes were deposited through a shadow metal mask by vacuum evaporation (2×10^−6 Torr) with a thickness of 20 nm, a channel length of 75 μm, and a channel width of 3000 μm). Next, this substrate was immersed in an ethanol solution of pentafluorobenzenethiol (concentration: 0.08 wt %) for 1 hour and then rinsed with ethanol. Finally, 0.05 μL of a p-xylene solution (0.4 wt %) of compound (101) was drop casted over the source and drain electrodes followed by drying at room temperature, to form a semiconductor layer.
Under a state where −80 V was applied to the drain electrode of the common source, the current (Id) flowing into the drain electrode was measured while the voltage (Vg) applied to the gate electrode was swept from +40 V to −60 V. The mobility of the transistor fabricated as described above was calculated in units of cm^2/Vs from the slope of √{square root over (I)}d—Vg using the equation (Eq. 101). [Equation 1] Id═(W/2L)Cμ(Vg−VT)^2 (Eq. 101)
In the equation, W represents the channel width, L represents the channel length, μ represents the mobility, C represents the capacitance per area of the gate insulator, and VT represents the threshold voltage.
On to `CCCCCCCCCCc1ccc2c(c1)sc1c3ccc(-c4ccc(C)cc4)cc3sc21` [Compound (C108)], for which the Mobility was 0.3 cm^2/Vs.

In the case of `CCCCCCCCCCc1ccc2c(c1)sc1c3ccc(-c4ccccc4)cc3sc21` [Compound (C106)], the Mobility stood at 0.1 cm^2/Vs. Next, `CCCCCCc1ccc2c(c1)sc1c3ccc(-c4ccccc4)cc3sc21` [Compound (C102)]: 0.5 cm^2/Vs. As for `CCCCCCc1ccc2cc3cc(-c4ccccc4)ccc3cc2c1` [Compound (101)], the figure is 1.2 cm^2/Vs; as for `CCCCCCCCc1ccc2cc3cc(-c4ccccc4)ccc3cc2c1` [Compound (103)], 3.3 cm^2/Vs. For the compound `CCCCCCCCc1ccc2c(c1)sc1c3ccc(-c4ccccc4)cc3sc21` [Compound (C104)], the Mobility was determined as 0.5 cm^2/Vs. As for `CCCCCCCc1ccc2cc3cc(-c4ccccc4)ccc3cc2c1` [Compound (102)], the figure is 2.4 cm^2/Vs; as for `CCCCCCc1ccc2c(c1)sc1c3ccc(-c4ccc(C)cc4)cc3sc21` [Compound (C107)], 0.5 cm^2/Vs. `CCCCCCCCCCc1ccc2cc3cc(-c4ccccc4)ccc3cc2c1` [Compound (105)] gave a Mobility of 2.1 cm^2/Vs. Next, `CCCCCCCc1ccc2c(c1)sc1c3ccc(-c4ccccc4)cc3sc21` [Compound (C103)]: 0.6 cm^2/Vs.

`CCCCCCCCCc1ccc2cc3cc(-c4ccccc4)ccc3cc2c1` [Compound (104)] gave a Mobility of 1.7 cm^2/Vs.

Take `CCCCCCCCCCc1ccc2cc3cc(-c4ccc(C)cc4)ccc3cc2c1` [Compound (107)]: the Mobility was found to be 1.4 cm^2/Vs. As for `CCCCCCCCCc1ccc2c(c1)sc1c3ccc(-c4ccccc4)cc3sc21` [Compound (C105)], the figure is 0.3 cm^2/Vs; as for `CCCCCCc1ccc2cc3cc(-c4ccc(C)cc4)ccc3cc2c1` [Compound (106)], 2.3 cm^2/Vs.

As for `c1ccc(-c2ccc3cc4cc(-c5ccccc5)ccc4cc3c2)cc1` [Compound (C101), reference compound], the Mobility entry was “Semiconductor layer cannot be formed due”.
